Results on 33 targets are retold here after the supplement of paper PMC10849652.

Chains of the proteins cited; added tags and fusions are not shown. Lines headed by an entry give the natural chain unless they say otherwise; changes in a name come on top.
UniProt Q6UWU4: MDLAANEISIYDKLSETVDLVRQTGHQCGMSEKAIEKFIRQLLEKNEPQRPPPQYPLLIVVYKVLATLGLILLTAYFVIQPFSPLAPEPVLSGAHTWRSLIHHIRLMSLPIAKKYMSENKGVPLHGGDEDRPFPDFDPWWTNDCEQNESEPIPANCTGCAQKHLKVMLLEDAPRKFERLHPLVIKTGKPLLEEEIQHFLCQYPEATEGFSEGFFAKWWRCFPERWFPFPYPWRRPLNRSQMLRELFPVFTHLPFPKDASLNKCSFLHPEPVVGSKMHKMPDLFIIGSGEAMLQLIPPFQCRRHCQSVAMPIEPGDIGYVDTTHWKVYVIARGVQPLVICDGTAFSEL
UniProt Q9P1Z2: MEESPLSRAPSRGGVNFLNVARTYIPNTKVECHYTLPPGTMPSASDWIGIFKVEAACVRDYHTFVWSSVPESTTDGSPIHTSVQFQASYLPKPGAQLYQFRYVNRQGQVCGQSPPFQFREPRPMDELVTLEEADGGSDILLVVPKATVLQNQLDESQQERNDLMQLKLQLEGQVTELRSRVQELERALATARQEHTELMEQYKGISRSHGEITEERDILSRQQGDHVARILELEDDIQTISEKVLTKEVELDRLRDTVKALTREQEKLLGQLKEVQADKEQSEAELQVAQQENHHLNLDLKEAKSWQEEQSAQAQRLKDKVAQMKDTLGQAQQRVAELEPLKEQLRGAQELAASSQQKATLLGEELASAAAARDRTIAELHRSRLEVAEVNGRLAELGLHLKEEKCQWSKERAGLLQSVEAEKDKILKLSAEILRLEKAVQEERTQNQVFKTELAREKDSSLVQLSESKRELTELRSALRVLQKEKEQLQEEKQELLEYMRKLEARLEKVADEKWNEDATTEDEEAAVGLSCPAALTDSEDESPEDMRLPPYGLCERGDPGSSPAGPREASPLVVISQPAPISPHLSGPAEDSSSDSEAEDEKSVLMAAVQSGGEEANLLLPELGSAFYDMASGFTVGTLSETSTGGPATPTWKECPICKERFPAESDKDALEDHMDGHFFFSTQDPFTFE
UniProt Q8N999, whole entry, looked up: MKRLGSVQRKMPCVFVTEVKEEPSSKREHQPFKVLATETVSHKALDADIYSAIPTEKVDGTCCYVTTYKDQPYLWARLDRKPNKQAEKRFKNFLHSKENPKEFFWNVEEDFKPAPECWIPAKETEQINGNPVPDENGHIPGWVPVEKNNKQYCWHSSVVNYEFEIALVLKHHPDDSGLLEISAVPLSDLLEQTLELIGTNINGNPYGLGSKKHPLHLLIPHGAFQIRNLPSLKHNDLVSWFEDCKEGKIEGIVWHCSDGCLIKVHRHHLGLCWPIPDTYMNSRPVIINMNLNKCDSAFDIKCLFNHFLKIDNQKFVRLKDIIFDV
UniProt Q7KYR7: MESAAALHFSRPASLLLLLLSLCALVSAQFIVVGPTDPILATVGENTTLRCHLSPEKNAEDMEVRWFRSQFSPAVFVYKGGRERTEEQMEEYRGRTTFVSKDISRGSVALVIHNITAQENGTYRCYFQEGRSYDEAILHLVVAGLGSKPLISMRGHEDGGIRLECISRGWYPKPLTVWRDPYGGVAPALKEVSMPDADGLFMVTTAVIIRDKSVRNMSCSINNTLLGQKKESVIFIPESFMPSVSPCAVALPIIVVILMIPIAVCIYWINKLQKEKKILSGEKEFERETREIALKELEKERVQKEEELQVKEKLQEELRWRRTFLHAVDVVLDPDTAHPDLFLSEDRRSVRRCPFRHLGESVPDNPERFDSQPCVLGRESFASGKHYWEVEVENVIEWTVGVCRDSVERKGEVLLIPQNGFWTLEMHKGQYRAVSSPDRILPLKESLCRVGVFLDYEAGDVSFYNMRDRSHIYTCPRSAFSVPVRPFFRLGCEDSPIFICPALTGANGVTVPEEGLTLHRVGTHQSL
UniProt Q9NZ63: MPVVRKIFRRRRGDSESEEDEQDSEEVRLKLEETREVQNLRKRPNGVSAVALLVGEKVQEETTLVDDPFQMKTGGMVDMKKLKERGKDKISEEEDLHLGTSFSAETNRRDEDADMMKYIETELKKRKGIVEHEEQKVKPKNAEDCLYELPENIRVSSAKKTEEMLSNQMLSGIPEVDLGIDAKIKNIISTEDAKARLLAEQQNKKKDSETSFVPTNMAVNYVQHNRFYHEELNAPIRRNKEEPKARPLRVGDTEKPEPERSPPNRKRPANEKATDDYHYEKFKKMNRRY
UniProt P27708: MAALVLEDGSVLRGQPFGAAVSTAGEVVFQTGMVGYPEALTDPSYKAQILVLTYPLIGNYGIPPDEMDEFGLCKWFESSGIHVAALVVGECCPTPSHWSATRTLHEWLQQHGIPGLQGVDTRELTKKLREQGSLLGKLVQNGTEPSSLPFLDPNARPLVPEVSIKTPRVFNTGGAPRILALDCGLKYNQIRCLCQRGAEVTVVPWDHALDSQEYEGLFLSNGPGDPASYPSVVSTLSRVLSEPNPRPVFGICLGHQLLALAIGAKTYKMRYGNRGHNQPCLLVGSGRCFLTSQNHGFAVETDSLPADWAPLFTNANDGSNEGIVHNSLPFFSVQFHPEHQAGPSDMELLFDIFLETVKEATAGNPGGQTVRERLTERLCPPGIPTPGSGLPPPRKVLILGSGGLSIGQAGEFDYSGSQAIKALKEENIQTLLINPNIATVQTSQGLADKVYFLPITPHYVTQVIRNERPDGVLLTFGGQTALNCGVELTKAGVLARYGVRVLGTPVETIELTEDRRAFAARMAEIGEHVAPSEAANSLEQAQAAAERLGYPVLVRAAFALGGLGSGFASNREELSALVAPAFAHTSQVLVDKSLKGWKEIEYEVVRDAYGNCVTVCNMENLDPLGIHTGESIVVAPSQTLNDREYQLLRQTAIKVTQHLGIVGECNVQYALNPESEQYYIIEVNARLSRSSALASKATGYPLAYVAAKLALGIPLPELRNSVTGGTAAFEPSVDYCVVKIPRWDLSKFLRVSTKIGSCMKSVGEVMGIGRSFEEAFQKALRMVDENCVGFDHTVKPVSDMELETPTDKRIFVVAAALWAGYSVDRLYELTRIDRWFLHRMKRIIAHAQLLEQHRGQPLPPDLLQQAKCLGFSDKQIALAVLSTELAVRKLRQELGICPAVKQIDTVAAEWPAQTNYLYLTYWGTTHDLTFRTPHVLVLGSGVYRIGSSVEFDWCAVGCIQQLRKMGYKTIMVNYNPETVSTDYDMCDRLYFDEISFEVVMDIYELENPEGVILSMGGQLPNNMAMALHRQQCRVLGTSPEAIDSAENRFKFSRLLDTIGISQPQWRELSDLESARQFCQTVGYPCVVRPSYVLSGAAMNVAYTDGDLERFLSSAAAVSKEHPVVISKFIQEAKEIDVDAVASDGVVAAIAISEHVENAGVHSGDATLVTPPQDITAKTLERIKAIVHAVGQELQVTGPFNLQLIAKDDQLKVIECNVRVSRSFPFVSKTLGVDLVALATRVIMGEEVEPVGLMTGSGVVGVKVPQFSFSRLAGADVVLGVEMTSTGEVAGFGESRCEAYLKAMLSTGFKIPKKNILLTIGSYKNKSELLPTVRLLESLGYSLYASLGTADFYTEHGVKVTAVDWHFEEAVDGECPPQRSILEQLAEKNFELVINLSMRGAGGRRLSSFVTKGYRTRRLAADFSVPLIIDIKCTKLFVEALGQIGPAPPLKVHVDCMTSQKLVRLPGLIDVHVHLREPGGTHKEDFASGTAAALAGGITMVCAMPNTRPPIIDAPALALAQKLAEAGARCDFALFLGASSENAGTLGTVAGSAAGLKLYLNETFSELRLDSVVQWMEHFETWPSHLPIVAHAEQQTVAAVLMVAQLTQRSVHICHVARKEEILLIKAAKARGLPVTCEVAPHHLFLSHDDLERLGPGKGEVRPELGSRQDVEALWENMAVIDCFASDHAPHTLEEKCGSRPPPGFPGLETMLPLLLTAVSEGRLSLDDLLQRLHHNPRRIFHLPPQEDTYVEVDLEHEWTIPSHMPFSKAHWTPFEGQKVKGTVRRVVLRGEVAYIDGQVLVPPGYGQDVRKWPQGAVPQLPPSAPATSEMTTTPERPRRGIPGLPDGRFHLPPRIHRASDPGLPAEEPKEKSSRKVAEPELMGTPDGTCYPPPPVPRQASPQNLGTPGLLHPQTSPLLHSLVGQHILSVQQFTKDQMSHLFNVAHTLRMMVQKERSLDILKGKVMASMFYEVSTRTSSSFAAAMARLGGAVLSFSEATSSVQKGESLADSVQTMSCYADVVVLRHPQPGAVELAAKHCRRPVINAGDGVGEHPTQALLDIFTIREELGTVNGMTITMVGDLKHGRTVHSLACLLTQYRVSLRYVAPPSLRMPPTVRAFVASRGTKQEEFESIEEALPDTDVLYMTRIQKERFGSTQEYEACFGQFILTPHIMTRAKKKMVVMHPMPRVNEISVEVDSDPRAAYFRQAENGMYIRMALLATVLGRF
UniProt Q8N1Q1: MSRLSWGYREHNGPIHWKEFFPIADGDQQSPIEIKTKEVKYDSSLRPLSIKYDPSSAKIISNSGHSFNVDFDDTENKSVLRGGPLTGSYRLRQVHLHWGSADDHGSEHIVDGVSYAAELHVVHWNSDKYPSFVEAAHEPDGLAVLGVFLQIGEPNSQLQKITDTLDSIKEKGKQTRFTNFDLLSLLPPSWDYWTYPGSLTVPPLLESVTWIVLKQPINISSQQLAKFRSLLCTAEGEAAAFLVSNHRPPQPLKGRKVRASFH
UniProt Q96GQ5: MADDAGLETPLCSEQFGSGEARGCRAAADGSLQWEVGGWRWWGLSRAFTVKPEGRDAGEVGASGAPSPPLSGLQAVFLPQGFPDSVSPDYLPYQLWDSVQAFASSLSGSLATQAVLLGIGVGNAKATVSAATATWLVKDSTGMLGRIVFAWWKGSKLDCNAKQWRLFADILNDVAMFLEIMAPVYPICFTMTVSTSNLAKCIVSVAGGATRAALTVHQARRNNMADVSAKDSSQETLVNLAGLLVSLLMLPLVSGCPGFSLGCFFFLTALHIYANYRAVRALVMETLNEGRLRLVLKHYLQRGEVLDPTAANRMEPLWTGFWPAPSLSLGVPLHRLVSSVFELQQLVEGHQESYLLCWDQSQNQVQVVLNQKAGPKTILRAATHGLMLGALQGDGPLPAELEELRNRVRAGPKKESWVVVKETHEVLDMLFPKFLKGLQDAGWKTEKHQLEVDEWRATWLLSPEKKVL
UniProt Q96LT7: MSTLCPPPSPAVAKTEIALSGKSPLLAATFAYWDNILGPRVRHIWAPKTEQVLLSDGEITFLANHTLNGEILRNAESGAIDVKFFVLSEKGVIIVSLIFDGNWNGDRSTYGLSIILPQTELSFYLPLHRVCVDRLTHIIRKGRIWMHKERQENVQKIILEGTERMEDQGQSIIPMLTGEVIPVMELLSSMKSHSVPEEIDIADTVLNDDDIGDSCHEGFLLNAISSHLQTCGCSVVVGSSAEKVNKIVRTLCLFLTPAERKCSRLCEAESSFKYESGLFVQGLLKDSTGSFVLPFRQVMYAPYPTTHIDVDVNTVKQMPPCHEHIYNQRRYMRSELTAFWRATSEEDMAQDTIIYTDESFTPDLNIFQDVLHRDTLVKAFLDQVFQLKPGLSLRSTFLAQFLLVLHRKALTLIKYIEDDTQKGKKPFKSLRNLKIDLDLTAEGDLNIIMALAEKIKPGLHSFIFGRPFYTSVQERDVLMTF
UniProt Q96B23: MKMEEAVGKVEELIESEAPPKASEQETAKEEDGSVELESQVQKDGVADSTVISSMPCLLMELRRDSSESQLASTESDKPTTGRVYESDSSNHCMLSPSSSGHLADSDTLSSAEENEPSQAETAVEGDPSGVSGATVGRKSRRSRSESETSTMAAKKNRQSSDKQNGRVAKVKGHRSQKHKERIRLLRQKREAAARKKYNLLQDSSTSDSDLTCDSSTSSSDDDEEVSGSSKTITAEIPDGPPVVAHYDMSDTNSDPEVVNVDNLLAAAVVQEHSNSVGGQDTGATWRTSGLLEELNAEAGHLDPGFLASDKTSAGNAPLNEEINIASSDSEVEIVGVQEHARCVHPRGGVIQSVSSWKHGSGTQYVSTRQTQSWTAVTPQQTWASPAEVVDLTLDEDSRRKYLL
UniProt Q9Y2G2: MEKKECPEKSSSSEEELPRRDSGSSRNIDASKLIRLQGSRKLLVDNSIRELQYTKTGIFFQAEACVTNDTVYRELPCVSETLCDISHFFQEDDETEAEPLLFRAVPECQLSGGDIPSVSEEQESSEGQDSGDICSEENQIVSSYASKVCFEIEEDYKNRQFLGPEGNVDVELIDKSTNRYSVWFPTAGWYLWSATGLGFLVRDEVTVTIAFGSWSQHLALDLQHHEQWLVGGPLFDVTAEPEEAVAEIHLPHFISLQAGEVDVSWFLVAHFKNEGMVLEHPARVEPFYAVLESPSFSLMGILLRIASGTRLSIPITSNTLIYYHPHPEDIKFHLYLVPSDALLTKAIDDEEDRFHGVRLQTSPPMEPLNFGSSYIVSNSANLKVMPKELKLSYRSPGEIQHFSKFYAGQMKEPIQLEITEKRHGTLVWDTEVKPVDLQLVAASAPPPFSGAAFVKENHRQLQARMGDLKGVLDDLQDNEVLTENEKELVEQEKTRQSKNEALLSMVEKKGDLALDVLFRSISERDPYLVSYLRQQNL

This is one part of the list.

Compound in this test: Cc1nc(Nc2n[nH]c3c2CN(C(=O)N[C@H](CN(C)C)c2ccccc2)C3(C)C)c2sccc2n1
The test is described as follows: log2 fold change, soluble protein after heating vs DMSO (PISA); higher = thermal stabilisation; K562 cells, 10 uM, 30 min; active = over 0.2 and 3.5 SD of the protein, either way, in both replicates (recomputed). Put shortly: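 Aliquots of K562 cells (2×10^6 cells/mL) treated with 10 μM compound for 30 min were heated for 3 min over 48°C-58°C. After pooling and extraction in PBS with 0.5% NP-40 at 4°C, soluble protein from a 21,000xg, 90 min spin was quantified by TMTpro 16plex LC-MS/MS with channel sums equalised. Thermal stability is expressed against control samples, from duplicates, as a log2 fold change.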
For C8orf76 (UniProt Q96K31), the log2 fold change was inactive: 0.056. To C6orf89 isoform 2 (UniProt Q6UWU4) belongs inactive: -0.027; to CALCOCO1 (UniProt Q9P1Z2), inactive: -0.072; to CALU isoform 4 (UniProt O43852), inactive: 0.016. The figure for C1GALT1C1 (UniProt Q96EU7) is inactive: -0.067; for C9orf40 (UniProt Q8IXQ3) it is inactive: 0.025; for CAPRIN1 (UniProt Q14444) it is inactive: 0.158. In the case of C11orf68 (UniProt Q9H3H3), the log2 fold change is inactive: -0.09.

CACTIN isoform 2 (UniProt Q8WUQ7): the log2 fold change was inactive: -0.271. The figure for C18orf32 (UniProt Q8TCD1) is inactive: 0.051; for C1GALT1 (UniProt Q9NS00) it is inactive: 0.023; for C17orf80 (UniProt Q9BSJ5) it is inactive: 0.023.

For CANX isoform 2 (UniProt P27824), the log2 fold change was inactive: 0.032. Turning to C4BPA (UniProt P04003), the log2 fold change was inactive: 0.145. Regarding C12orf29 (UniProt Q8N999), the log2 fold change was inactive: 0.018.

As for CAB39 (UniProt Q9Y376), the log2 fold change is inactive: -0.008. To BTRC (UniProt Q9Y297) belongs inactive: 0.038.

For the target BUB1B isoform 3 (UniProt O60566), the log2 fold change is inactive: -0.142. The figure for BTN2A1 (UniProt Q7KYR7) is inactive: -0.115. Consider C12orf73 (UniProt Q69YU5), for which the log2 fold change was inactive: -0.056. As to C9orf78 (UniProt Q9NZ63), the log2 fold change is inactive: -0.017. To C1orf52 (UniProt Q8N6N3) belongs inactive: -0.008; to CAD (UniProt P27708), inactive: -0.008; to CA13 (UniProt Q8N1Q1), inactive: 0.021. With CALB1 (UniProt P05937), the log2 fold change is inactive: 0.025. To C1D (UniProt Q13901) belongs inactive: -0.074.

Consider C16orf58 (UniProt Q96GQ5), for which the log2 fold change was inactive: 0.029. As for C9orf72 (UniProt Q96LT7), the log2 fold change is inactive: 0.073.

As to C19orf53 (UniProt Q9UNZ5), the log2 fold change was inactive: 0.139. The figure for CAPZB isoform 2 (UniProt P47756) is inactive: -0.097; for C7 (UniProt P10643) it is inactive: 0.029. The figure for C18orf25 isoform 2 (UniProt Q96B23) is inactive: 0.098; for CARD8 isoform 5 (UniProt Q9Y2G2) it is inactive: -0.257.
